Test results: article doi:10.1101/2025.11.25.690410
Results are given in words; binding and its absence hold for the method and conditions named. In cells and extracts the contact can be indirect. Some results given as binding are weak or reduced against the parent protein; the word gives no strength.

Amino acid sequences for entries named in this document (tags omitted).
UniProt Q8C0J2: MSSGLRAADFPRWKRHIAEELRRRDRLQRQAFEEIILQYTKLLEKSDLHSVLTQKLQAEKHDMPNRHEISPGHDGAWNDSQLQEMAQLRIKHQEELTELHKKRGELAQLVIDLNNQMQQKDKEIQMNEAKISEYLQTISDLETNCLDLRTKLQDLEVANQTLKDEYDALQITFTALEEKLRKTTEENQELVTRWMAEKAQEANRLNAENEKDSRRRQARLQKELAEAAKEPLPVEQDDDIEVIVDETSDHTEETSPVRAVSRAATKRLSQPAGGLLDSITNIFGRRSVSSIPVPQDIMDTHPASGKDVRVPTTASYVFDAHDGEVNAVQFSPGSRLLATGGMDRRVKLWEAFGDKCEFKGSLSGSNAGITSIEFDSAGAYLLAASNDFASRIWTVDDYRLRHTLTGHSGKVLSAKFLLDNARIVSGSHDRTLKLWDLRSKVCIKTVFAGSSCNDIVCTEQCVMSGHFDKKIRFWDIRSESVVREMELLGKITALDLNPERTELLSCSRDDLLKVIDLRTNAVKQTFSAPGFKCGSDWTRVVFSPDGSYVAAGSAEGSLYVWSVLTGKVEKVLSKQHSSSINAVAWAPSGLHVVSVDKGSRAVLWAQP

Molecular target: ATG16L1 (mouse (endogenous in acute cortical slices)) (UniProt Q8C0J2)
Experiment: co-IP

B1: Rab5b (protein, UniProt P61021 1-215)
chain: MTSRSTARPNGQPQASKICQFKLVLLGESAVGKSSLVLRFVKGQFHEYQESTIGAAFLTQSVCLDDTTVKFEIWDTAGQERYHSLAPMYYRGAQAAIVVYDITNQETFARAKTWVKELQRQASPSIVIALAGNKADLANKRMVEYEEAQAYADDNSLLFMETSAKTAMNVNDLFLAIAKKLPKSEPQNLGGAAGRSRGVDLHEQSQQNKSQCCSN
binding: binds
